In patent US20250177432A1, “RNA MOLECULES AND COMPOSITIONS FOR CANCER IMMUNOTHERAPY” (WUHAN HOUXIAN BIOPHARMACEUTICAL CO. LTD., priority 2023, published 2025):
At least one compound was matched to its structure with a doubt left.

Test system: CT-26 cells
Assay: Colon cancer mouse model, intratumoral injection of LNP-packed mRNA samples, tumor volume at day 18 (Example 1)
Assay type: in vivo, mice

With `CCOCc1nc2c(N)nc3ccccc3c2n1CC(C)(C)O` [R848, Resiquimod] the “anti-tumor effect (tumor volume)” value (10 μg of each mRNA per mouse in LNP, intratumoral 8 days after implantation, tumor volumes at day 18) was “moderate anti-tumor effect as a single agent” and the “efficacy of the combination compared to single agents or to the combination without the added agent” value (10 μg of each mRNA per mouse, intratumoral, day 18) was “decreased other agents' anti-tumor effects”.
